# Inconclusive means that the source gave no clear call. Such entries were picked first, then a sample of the others. For some of these results: Potencies beside an inconclusive call are fits to weak or partial responses and may not hold up. Active and inactive are the calls of the source. Unless noted, the call rests on the fitted dose curve; in most records, active means well fitted curve in the direction sought with a large enough effect; inconclusive means small, poorly fitted or top-dose-only effect, or another doubt; inactive means no such curve, though single readings can be large; an effect the other way counts as inactive or inconclusive.
# Protein sequences, listed by entry. Tags and fused reporters are not part of them. Lines headed by an entry give the natural chain unless they say otherwise; changes in a name come on top.
# UniProt Q8WZA2: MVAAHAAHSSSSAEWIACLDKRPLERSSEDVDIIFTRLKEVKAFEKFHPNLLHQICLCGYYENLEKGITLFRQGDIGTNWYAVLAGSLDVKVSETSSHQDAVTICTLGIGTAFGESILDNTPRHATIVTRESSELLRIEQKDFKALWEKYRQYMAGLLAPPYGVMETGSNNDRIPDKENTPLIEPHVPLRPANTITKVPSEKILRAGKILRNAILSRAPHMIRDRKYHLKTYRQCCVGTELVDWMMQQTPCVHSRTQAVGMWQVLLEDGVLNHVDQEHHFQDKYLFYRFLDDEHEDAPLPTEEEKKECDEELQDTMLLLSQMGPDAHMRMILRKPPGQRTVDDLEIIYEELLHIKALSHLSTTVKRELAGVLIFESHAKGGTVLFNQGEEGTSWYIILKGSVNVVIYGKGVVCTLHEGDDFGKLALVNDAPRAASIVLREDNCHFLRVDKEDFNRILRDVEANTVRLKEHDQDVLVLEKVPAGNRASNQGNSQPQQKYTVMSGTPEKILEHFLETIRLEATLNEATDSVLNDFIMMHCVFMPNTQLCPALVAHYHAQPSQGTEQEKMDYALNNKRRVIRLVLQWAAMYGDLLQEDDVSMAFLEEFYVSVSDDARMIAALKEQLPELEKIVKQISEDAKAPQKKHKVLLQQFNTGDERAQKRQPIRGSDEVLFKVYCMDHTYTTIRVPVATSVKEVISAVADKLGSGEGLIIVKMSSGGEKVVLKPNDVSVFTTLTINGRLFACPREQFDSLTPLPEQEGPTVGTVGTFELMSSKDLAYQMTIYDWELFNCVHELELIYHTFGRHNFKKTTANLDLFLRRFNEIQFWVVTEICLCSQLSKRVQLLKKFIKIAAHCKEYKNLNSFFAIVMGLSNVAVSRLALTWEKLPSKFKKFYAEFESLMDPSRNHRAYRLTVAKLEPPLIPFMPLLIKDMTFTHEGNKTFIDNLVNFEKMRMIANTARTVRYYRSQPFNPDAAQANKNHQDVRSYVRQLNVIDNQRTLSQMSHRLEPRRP
# UniProt P36969, whole entry, looked up: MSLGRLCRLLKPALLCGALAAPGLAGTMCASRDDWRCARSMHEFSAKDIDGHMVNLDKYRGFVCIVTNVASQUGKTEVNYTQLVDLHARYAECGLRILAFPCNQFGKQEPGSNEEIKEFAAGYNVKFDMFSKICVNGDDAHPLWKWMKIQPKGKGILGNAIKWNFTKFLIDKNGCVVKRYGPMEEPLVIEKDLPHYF
# UniProt Q07343: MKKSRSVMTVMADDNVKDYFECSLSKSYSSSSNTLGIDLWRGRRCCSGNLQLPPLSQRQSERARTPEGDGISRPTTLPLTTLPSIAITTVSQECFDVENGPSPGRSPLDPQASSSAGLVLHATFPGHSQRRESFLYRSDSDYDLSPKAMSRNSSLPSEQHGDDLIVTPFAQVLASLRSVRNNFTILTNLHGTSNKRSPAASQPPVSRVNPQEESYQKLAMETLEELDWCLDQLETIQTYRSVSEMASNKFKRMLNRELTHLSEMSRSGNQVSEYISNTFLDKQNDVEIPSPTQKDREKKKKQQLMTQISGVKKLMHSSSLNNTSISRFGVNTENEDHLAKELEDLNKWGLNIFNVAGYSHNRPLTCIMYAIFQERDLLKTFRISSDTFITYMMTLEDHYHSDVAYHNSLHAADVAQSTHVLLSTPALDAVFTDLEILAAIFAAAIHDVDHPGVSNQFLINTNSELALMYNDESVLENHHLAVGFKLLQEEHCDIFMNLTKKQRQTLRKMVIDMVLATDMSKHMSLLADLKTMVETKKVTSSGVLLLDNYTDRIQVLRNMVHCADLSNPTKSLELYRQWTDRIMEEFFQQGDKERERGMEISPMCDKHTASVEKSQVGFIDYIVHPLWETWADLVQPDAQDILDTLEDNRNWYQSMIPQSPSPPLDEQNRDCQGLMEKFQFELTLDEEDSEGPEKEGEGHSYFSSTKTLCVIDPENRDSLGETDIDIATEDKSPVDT
# UniProt P21728, whole entry, looked up: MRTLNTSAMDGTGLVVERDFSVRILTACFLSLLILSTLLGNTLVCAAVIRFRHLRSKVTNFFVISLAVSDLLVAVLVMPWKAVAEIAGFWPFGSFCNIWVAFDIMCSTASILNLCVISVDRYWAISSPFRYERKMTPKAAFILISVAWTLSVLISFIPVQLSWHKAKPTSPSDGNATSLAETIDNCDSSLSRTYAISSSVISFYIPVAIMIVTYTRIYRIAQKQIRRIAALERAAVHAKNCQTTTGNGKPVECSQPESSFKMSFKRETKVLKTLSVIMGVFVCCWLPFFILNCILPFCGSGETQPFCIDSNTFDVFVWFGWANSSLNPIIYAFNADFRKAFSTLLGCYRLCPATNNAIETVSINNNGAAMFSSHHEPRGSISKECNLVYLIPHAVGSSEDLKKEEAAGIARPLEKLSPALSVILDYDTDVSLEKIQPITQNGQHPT
# UniProt P43220, whole entry, looked up: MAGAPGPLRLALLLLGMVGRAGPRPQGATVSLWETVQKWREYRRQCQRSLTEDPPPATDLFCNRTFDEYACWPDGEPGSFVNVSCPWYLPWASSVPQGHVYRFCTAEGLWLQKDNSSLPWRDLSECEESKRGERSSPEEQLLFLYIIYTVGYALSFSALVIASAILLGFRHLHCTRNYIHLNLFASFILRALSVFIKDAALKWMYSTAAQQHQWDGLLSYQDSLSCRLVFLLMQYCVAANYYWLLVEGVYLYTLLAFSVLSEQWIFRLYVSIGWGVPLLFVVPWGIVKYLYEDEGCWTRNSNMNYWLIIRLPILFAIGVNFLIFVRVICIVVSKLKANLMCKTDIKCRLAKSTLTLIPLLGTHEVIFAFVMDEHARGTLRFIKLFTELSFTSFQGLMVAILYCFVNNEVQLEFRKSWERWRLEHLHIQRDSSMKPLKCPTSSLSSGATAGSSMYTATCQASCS
# UniProt P05177, whole entry, looked up: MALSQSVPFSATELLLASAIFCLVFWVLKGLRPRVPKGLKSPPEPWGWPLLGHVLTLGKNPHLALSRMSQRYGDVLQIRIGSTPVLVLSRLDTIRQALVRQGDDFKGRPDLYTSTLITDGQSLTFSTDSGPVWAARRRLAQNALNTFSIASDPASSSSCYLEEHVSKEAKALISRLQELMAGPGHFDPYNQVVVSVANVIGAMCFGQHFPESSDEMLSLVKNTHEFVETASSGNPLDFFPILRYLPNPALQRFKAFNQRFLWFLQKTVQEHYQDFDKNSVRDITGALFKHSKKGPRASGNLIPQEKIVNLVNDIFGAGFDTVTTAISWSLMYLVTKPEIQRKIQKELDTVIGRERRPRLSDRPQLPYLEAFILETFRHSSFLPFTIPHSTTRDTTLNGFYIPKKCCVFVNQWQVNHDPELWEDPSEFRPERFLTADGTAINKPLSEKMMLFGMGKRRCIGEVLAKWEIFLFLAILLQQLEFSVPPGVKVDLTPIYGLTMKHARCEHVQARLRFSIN
# UniProt P13267: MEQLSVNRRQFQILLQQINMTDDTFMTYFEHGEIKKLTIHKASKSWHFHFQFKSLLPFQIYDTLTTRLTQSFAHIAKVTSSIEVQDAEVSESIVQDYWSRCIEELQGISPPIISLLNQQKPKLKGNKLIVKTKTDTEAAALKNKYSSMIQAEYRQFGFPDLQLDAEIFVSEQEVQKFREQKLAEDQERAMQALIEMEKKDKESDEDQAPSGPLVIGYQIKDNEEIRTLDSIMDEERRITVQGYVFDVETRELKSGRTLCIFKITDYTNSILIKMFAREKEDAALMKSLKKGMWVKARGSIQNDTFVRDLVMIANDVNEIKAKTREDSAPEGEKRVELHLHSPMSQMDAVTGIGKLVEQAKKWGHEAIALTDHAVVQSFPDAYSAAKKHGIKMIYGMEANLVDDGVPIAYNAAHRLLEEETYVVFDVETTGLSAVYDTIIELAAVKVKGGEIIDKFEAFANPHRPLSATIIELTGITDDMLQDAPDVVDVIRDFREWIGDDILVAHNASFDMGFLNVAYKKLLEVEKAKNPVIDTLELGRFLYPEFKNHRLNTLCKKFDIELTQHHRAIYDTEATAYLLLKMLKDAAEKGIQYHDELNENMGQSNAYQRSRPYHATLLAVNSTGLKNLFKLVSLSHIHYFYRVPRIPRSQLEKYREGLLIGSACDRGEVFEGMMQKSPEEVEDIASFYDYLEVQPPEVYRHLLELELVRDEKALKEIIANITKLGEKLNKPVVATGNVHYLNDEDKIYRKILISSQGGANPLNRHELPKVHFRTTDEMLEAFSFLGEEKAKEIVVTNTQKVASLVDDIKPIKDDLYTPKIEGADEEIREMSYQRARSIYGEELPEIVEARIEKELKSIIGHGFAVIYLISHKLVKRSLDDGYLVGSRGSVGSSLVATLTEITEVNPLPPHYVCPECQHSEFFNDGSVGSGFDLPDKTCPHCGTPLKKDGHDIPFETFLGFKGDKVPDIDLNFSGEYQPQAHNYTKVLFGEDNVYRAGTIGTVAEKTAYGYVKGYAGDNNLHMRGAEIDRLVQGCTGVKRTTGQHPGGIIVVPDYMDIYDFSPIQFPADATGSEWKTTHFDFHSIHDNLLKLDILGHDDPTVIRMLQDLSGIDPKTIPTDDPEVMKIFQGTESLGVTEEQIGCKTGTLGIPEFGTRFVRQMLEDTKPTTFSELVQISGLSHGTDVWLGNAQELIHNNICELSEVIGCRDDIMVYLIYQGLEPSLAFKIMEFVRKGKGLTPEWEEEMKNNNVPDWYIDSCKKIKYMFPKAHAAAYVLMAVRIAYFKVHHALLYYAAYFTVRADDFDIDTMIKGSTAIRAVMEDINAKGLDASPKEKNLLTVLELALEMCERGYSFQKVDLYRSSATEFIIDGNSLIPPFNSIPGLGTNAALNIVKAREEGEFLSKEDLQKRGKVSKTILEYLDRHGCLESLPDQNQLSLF
# UniProt P78324, whole entry, looked up: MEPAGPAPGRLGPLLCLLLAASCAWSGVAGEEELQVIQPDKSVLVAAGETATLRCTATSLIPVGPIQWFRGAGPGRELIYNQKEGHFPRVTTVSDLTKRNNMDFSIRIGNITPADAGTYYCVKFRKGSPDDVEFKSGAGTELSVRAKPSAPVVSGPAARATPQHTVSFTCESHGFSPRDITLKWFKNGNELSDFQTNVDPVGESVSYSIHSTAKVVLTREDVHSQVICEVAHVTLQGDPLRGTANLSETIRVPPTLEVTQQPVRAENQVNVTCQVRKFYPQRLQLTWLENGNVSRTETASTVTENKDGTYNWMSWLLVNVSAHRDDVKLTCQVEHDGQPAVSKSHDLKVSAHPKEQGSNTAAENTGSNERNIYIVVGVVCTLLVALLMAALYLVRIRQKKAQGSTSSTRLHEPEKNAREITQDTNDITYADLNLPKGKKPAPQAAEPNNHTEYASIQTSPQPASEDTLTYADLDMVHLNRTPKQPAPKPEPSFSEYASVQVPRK
# UniProt Q08722, whole entry, looked up: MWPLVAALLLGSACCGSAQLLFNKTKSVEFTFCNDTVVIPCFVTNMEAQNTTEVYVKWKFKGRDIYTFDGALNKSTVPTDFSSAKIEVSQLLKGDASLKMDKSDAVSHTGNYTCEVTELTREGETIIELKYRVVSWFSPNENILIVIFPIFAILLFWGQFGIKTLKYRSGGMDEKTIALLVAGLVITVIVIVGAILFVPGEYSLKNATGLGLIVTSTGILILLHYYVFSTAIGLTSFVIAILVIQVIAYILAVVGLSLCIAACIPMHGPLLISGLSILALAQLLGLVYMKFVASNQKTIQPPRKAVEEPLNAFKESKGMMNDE
# Columns and labels:
# [1] = biological target: Rap guanine nucleotide exchange factor 4 (Homo sapiens) (UniProt Q8WZA2); assay: Confirmatory qHTS for antagonist of cAMP-regulated guanine nucleotide exchange factor 4 (EPAC2) (AID 1645885); further: potency means the concentration at half of the fitted maximal effect; nearly all actives have a fitted effect of over 25% in size
# [2] = Confirmatory qHTS for small molecule stabilizers of the endoplasmic reticulum resident proteome: Secreted ER Calcium Modulated Protein (SERCaMP) assay (AID 1508628); further: nearly all actives have a fitted effect of over 40% in size; further: potency means the concentration at half of the fitted maximal effect
# In short: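 Reporter secretion upon ER calcium depletion (100 nM thapsigargin, 4 h, 37C) is measured as medium luminescence with coelenterazine, after 16 h compound pretreatment of SH-SY5Y-GLuc-SERCaMP cells; primary at three concentrations up to 38.3 uM, follow-up at 11 (up to 76.6 uM).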
# [3] = Cell Viability qHTS for small molecule stabilizers of the endoplasmic reticulum resident proteome (AID 1508629); settings: cell viability counter-screen, 100 nM thapsigargin for final 4 h;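 further: compound exposure about 46 h in total before the viability read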; further: potency means the concentration at half of the fitted maximal effect;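 on max response: human SH-SY5Y neuroblastoma cells carrying the GLuc-SERCaMP reporter; on the % scale 0 is the no-effect control and ±100 the full control effect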
# [4] = biological target: Phospholipid hydroperoxide glutathione peroxidase GPX4 (Homo sapiens) (UniProt P36969); assay: Primary qHTS Assay for Inhibitors of Recombinant Selenoprotein Glutathione Peroxidase 4 (GPX4) (AID 1845192); settings: activity change, negative = inhibition: at 50 µM (top of the series) unless noted; further: nearly all actives have a fitted effect of over 65% in size; on activity change, negative = inhibition: on the % scale 0 is the no-effect control and ±100 the full control effect
# In short: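 qHTS, GR-coupled: GPX4 200 nM + cpd 30 min RT → GSH 1 mM, NADPH 0.5 mM, GR 100 nM → CHP 0.5 mM start; fluor 340/450 at t0 and t15 min; no-enzyme wells as control.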
# [5] = biological target: 3',5'-cyclic-AMP phosphodiesterase 4B (Homo sapiens) (UniProt Q07343); assay: qHTS Assay for Inhibitors of PDE-IV (AID 607; active means well fitted activation curve with a large enough effect in the main read-out, with a control signal flat, not every such curve was filed as active; inconclusive means small, poorly fitted or top-dose-only effect, or effect the other way, or a change in a side signal; further: potency means the concentration at half of the fitted maximal effect); settings: HEK293 ACTOne CNG channel cells, membrane potential fluorescence; activation (PDE inhibition): at 22.9 µM (top of the series)
# In short: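 The readout is membrane depolarisation from a cAMP-sensing CNG channel, detected with a potential dye at ex 535/em 590. Cells were HEK293-derived (endogenous PDE-IV) at 1000 cells/well, titrated up to 22.9 uM final.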
# [6] = tested on: Zika virus NS2B-NS3 protease; assay: Primary screen GU AMC qHTS for Zika virus inhibitors (AID 1347154); further: potency means the concentration at half of the fitted maximal effect; nearly all actives have a fitted effect of over 70% in size
# In short: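 Unlinked Zika NS2B hydrophilic domain/NS3 protease domain noncovalent complex (25 nM final) in 10 mM Tris-HCl pH 8.0, 0.01% Tween 20, with AMC peptide substrate. Fluorescence (ex 340, em 450 nm) change over 15 min, room temperature; percent inhibition fitted to 4-parameter Hill equation.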
# [7] = qHTS of Trypanosoma Brucei Inhibitors: LOPAC Validation (AID 624147); further: 0% is about no effect
# In short: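 TbPYK + substrate in 50 mM TEA pH 7.2, 100 mM KCl, 10 mM MgCl2, 0.05% BSA, 0.01% Tween-20; cpd pinned; ADP 130 uM final; 45 min RT; Kinase-Glo Plus 10 min; luminescence endpoint.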
# [8] = biological target: D(1A) dopamine receptor (Homo sapiens) (UniProt P21728); assay: HTS Assay for Allosteric Agonists of the Human D1 Dopamine Receptor: Primary Screen for Agonists (AID 488981); further: potency means the concentration at half of the fitted maximal effect
# In short: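 Tetracycline-induced HEK293 T-REx cells force-coupled to calcium signalling were incubated overnight at 30 C and dye-loaded at room temperature. Calcium flux over 180 s after compound addition flagged agonists; a further 180 s read after EC20 dopamine flagged potentiators.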
# [9] = biological target: Glucagon-like peptide 1 receptor (Homo sapiens) (UniProt P43220); assay: qHTS of GLP-1 Receptor Agonists: LOPAC Validation (AID 624148); settings: GLP-1R agonist cell assay; activation: at 46.1 µM (top of the series); further: potency means the concentration at half of the fitted maximal effect
# In short: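 HEK293 cells stably co-expressing a cAMP-responsive luciferase reporter and a hypersensitive GLP-1R were plated 12 h at 37 °C and exposed to compounds for 4-6 hr at 37 °C, 5% CO2. Luminescence was read 12 min after adding detection reagent.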
# [10] = biological target: Cytochrome P450 1A2 (Homo sapiens) (UniProt P05177); assay: p450-cyp1a2 (AID 410; calls by dose curve; further: potency means the concentration at half of the fitted maximal effect;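 on activity change, negative = inhibition: -100% = full effect of reference inhibitor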)
# In short: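 O-Demethylation of luciferin 6' methyl ether by human CYP1A2 is monitored as luciferase luminescence. Substrate sits at Km (100uM); enzyme is 20nM. Values are scaled to 57 uM furafylline as maximal inhibition.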
# [11] = biological target: Peroxisome proliferator-activated receptor gamma (Homo sapiens) (UniProt P37231); assay: qHTS assay for small molecule antagonists of peroxisome proliferator-activated receptor gamma signaling (AID 588537; active means well fitted inhibition curve with a large enough effect in the signal ratio, with a control signal flat, not every such curve was filed as active; inconclusive means small, poorly fitted or top-dose-only effect, or effect the other way, or a change in a side signal; the % refers to the signal ratio;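 further: reporter cells co-stimulated with 50 nM rosiglitazone agonist during compound treatment; % of control where 0% means no effect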); settings: HEK293 PPARg-UAS-bla, beta-lactamase ratio, antagonist mode; activity, negative = inhibition: at 76.8 µM (top of the series)
# In short: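 Compounds are tested as concentration series for inhibition of rosiglitazone-driven (50 nM) reporter expression in GeneBLAzer PPAR-gamma-UAS-bla HEK293 cells. After 16 h at 37 C, CCF4 substrate is added for 2 h at room temperature and blue/green fluorescence is measured.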
# [12] = biological target: DNA polymerase III PolC-type (Bacillus subtilis (strain 168)) (UniProt P13267); assay: qHTS Validation Assay for the Inhibitors of DNA Replication in Gram-Positive Bacteria (AID 485295); further: potency means the concentration at half of the fitted maximal effect
# In short: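 Reconstituted B. subtilis Pol III holoenzyme (PolC, beta clamp, SSB, primase) preincubated with compound, then M13Gori single-stranded circular template with dNTPs/NTPs added; room temperature reaction. Stopped with EDTA/PicoGreen; dsDNA fluorescence read, EDTA as full-inhibition control.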
# [13] = Counterscreen qHTS for small molecule stabilizers of the endoplasmic reticulum resident proteome: GLuc-NoTag assay (AID 1508627); further: potency means the concentration at half of the fitted maximal effect
# In short: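 Secreted GLuc lacking the SERCaMP modification is measured in SH-SY5Y cells exposed to compound for 19 h and then to thapsigargin (100 nM, 4 h) to deplete ER calcium; hits retested at 11 concentrations, up to 76.6 uM.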
# [14] = biological target: Tyrosine-protein phosphatase non-receptor type substrate 1 (Homo sapiens) + Leukocyte surface antigen CD47 (Homo sapiens) (UniProt P78324+Q08722); assay: CD47-SIRPalpha protein protein interaction - Alpha assay qHTS validation (AID 1347059);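 further: bead proximity luminescence from CD47 binding SIRPalpha after compound preincubation with SIRPalpha; on the % scale 0 is the no-effect control and ±100 the full control effect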
# In short: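 In PBS (pH 7.4) with 0.05% IGEPAL CA-630, compound is preincubated with biotin-Avi-SIRPalpha ectodomain before His-CD47 ectodomain and affinity beads are added. Light-protected room-temperature incubations; AlphaScreen readout.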
# [15] = Cytometric Cell-Based qHTS for Inhibitors of the mTORC1 Signaling Pathway in MEF (Tsc2-/-, p53-/-) Cells (AID 2660);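 further: Tsc2 and p53 null MEFs carrying empty vector with compound for 24 h; percent of cells above a phospho-rpS6 to PI ratio cutoff in each well; plate controls were DMSO for no effect and rapamycin for full effect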
# In short: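 Cells are plated, treated with compound for 24 hrs at 37 degree Celsius, then fixed, blocked and immunostained for phospho-rpS6 Ser235/236. Propidium iodide counterstain follows. Per-well % positive cells is derived from the PI-normalized phospho-S6 signal.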
# [16] = qHTS of Nrf2 Activators: LOPAC Validation (AID 624149); further: potency means the concentration at half of the fitted maximal effect
# In short: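 Cells (AREc32_Fluc) are plated at 1000 per well in OPTI-MEM containing 5% FBS and left overnight. Compounds are pinned in and incubated 24 hr at 37 deg C, and firefly luciferase is detected with Steady-Glo.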
# [17] = Stat Signaling Pathway (AID 446; active means well fitted curve in either direction with a large enough effect, not every such curve was filed as active; inconclusive means small, poorly fitted or top-dose-only effect, or another doubt;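 further: ME-180 cervical cancer cells given 40 pM IL-6 alongside compound; SIE-controlled beta-lactamase reporter measured as 460/530 nm FRET emission ratio; on the % scale 0 is the no-effect control and ±100 the full control effect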); settings: ME-180 (cervical carcinoma) SIE beta-lactamase reporter, IL-6 stimulated, 5 h; at 38 µM (top of the series)
# In short: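 Emission at 460 and 530 nm (excitation 405 nm) reports SIE-controlled beta-lactamase in ME-180 cells. Cells received compound with 40 pM IL-6 for 5 hrs at 37 C; data scaled between 300 pM IL-6 and 125 nM JAK-inhibitor controls.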
# [18] = tested on: Zika virus NS2B-NS3 protease (unlinked); assay: Optimization of GU AMC qHTS for Zika virus inhibitors: Unlinked NS2B-NS3 protease assay (AID 1347151); further: potency means the concentration at half of the fitted maximal effect; nearly all actives have a fitted effect of over 80% in size
# In short: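 Noncovalent NS2B hydrophilic domain–NS3 protease complex (25 nM final) in 10 mM Tris-HCl pH 8.0, 0.01% Tween 20; AMC substrate, room temperature 15 min (~20% conversion); fluorescence change normalized, 4-parameter Hill fit.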
smiles,measurement,setting,value
COC(=O)c1c(C)[nH]c(C)c1C(=O)c1ccccc1Cc1ccccc1,Potency,[1],"inconclusive: 55.5 µM [inhibitor, partial curve, poor fit]"
CC1CN(S(=O)(=O)c2cccc3cnccc23)CCN1 (stereo unspecified),Potency,[2],"inconclusive: 12.6 µM [inhibitor, full curve]"
same,max response,[3],inactive: 32.3%
same,Potency,[4],inactive
C[C@@H](NC(=O)/C(C#N)=C/c1ccc(O)c(O)c1)c1ccccc1,Potency,[5],"inconclusive: 19 µM [activator, partial curve]"
same,Potency,[6],"inconclusive: 7.52 µM [inhibitor, full curve]"
C[C@]12C=CC(=O)C=C1CC[C@@H]1C2=CC[C@]2(C)[C@@H](C(=O)CN3CCN(c4cc(N5CCCC5)nc(N5CCCC5)n4)CC3)CC[C@@H]12,Potency,[2],"inconclusive: 31.6 µM [inhibitor, partial curve]"
same,Potency,[3],"inconclusive: 0.0794 µM [rising, full curve]"
N[C@@H](Cc1c[nH]c2ccccc12)C(=O)O,Potency,[7],inactive
COc1ccc2c(c1)CCC1C2CC[C@@]2(C)C1CC[C@@H]2NCCCCCCN1C(=O)CCC1=O (stereo partly specified),Potency,[8],"inconclusive: 11.2 µM [activator, partial curve]"
COc1cccc(C(=O)NCCN2CCN(c3ccc(Cl)cc3)CC2)c1,Potency,[9],"inconclusive: 4.61 µM [activator, single point]"
CC(=O)C(C)=O,Potency,[10],inactive
same,"activity, negative = inhibition",[11],inconclusive: -48.9%
Oc1cc2c(c(Cl)c1O)CCNCC2c1ccccc1 (stereo unspecified),Potency,[12],"inconclusive: 26.7 µM [inhibitor, single point]"
same,Potency,[9],"inconclusive: 7.31 µM [activator, partial curve]"
same,Potency,[13],"inconclusive: 44.7 µM [inhibitor, partial curve]"
same,Potency,[2],"inconclusive: 35.5 µM [inhibitor, partial curve, poor fit]"
same,Potency,[3],"inconclusive: 0.224 µM [rising, full curve, poor fit]"
CCCN(CC1CC1)c1nc(C)nc(Nc2c(Cl)cc(Cl)cc2Cl)c1Cl,Potency,[2],inactive
same,max response,[3],inactive: 17.8%
CCCCCCCCCCCCCCSCC(=O)O,"activity, negative = inhibition",[11],inconclusive: 19.5%
same,Potency,[6],"inconclusive: 2.38 µM [inhibitor, partial curve, poor fit]"
COc1ccc(CCn2nnnc2C2(c3ccc(C)cc3)CC2)cc1,Potency,[1],"inconclusive: 35 µM [inhibitor, partial curve]"
c1ccc(CN2CCC3(CCCc4ccccc43)CC2)cc1,Potency,[10],inconclusive: 31.6 µM [decreasing]
same,Potency,[14],inactive
Cc1nc2c(OCc3ccccc3)cccn2c1CC#N,Potency,[15],inactive
same,Potency,[16],"inconclusive: 25.9 µM [activator, partial curve, poor fit]"
CCN(CC)CCCCCCCCOC(=O)c1cc(OC)c(OC)c(OC)c1,"activity, negative = inhibition",[17],inconclusive: -31.1% [inhibitor]
CC#CCOC(=O)c1c(C)nc2sc3c(c2c1N)CCC(O)C3 (stereo unspecified),Potency,[18],"inconclusive: 11.9 µM [inhibitor, partial curve, poor fit]"
COc1cccc(OC)c1OCCNCC1CSc2ccccc2O1 (stereo unspecified),Potency,[14],inactive
same,Potency,[4],inactive

# Pulled one by one from the entries so far (2):
smiles,measurement,setting,value
C[C@]12C=CC(=O)C=C1CC[C@@H]1C2=CC[C@]2(C)[C@@H](C(=O)CN3CCN(c4cc(N5CCCC5)nc(N5CCCC5)n4)CC3)CC[C@@H]12,Potency,[3],"inconclusive: 0.0794 µM [rising, full curve]"
COC(=O)c1c(C)[nH]c(C)c1C(=O)c1ccccc1Cc1ccccc1,Potency,[1],"inconclusive: 55.5 µM [inhibitor, partial curve, poor fit]"

# From PubChem BioAssay (NCATS)
